Test results from the supplement of paper PMC10849652.
This is one part of the list.

Sequences of proteins named here, by UniProt entry; tags and fusion partners are left off. A change or cut given only in a name is not applied to a line headed by its entry.
UniProt P51825: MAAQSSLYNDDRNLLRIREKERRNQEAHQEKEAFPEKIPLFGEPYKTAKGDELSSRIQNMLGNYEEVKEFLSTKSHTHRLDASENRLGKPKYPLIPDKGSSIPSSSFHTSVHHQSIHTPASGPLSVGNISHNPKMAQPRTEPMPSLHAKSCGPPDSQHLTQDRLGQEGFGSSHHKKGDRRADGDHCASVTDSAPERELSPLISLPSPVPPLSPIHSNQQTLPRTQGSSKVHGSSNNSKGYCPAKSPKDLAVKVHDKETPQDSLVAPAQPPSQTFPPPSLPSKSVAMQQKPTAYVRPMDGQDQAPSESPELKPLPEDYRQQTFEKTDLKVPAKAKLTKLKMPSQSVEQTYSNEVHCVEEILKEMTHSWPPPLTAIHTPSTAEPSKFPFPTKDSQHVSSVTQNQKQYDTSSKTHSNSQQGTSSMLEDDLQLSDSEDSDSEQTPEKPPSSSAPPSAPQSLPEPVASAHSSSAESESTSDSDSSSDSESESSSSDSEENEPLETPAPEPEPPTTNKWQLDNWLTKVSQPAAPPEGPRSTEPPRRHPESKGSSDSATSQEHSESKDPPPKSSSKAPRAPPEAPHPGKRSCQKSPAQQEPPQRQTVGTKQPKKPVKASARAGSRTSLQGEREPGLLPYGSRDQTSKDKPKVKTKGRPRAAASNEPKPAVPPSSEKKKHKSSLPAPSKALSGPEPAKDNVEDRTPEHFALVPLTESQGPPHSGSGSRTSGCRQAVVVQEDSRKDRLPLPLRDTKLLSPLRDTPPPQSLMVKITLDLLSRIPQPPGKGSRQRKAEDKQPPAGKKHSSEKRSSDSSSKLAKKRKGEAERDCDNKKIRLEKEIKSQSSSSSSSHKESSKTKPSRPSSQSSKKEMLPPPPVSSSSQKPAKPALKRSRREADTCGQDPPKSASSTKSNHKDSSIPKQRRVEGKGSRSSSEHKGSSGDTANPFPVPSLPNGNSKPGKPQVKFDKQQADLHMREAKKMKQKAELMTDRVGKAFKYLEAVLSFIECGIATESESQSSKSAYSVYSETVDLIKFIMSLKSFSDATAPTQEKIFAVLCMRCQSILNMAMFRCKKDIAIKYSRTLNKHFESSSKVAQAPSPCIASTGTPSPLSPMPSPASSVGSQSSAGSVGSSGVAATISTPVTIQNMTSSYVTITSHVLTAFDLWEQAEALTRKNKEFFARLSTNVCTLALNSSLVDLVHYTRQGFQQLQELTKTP
UniProt Q8WYP5: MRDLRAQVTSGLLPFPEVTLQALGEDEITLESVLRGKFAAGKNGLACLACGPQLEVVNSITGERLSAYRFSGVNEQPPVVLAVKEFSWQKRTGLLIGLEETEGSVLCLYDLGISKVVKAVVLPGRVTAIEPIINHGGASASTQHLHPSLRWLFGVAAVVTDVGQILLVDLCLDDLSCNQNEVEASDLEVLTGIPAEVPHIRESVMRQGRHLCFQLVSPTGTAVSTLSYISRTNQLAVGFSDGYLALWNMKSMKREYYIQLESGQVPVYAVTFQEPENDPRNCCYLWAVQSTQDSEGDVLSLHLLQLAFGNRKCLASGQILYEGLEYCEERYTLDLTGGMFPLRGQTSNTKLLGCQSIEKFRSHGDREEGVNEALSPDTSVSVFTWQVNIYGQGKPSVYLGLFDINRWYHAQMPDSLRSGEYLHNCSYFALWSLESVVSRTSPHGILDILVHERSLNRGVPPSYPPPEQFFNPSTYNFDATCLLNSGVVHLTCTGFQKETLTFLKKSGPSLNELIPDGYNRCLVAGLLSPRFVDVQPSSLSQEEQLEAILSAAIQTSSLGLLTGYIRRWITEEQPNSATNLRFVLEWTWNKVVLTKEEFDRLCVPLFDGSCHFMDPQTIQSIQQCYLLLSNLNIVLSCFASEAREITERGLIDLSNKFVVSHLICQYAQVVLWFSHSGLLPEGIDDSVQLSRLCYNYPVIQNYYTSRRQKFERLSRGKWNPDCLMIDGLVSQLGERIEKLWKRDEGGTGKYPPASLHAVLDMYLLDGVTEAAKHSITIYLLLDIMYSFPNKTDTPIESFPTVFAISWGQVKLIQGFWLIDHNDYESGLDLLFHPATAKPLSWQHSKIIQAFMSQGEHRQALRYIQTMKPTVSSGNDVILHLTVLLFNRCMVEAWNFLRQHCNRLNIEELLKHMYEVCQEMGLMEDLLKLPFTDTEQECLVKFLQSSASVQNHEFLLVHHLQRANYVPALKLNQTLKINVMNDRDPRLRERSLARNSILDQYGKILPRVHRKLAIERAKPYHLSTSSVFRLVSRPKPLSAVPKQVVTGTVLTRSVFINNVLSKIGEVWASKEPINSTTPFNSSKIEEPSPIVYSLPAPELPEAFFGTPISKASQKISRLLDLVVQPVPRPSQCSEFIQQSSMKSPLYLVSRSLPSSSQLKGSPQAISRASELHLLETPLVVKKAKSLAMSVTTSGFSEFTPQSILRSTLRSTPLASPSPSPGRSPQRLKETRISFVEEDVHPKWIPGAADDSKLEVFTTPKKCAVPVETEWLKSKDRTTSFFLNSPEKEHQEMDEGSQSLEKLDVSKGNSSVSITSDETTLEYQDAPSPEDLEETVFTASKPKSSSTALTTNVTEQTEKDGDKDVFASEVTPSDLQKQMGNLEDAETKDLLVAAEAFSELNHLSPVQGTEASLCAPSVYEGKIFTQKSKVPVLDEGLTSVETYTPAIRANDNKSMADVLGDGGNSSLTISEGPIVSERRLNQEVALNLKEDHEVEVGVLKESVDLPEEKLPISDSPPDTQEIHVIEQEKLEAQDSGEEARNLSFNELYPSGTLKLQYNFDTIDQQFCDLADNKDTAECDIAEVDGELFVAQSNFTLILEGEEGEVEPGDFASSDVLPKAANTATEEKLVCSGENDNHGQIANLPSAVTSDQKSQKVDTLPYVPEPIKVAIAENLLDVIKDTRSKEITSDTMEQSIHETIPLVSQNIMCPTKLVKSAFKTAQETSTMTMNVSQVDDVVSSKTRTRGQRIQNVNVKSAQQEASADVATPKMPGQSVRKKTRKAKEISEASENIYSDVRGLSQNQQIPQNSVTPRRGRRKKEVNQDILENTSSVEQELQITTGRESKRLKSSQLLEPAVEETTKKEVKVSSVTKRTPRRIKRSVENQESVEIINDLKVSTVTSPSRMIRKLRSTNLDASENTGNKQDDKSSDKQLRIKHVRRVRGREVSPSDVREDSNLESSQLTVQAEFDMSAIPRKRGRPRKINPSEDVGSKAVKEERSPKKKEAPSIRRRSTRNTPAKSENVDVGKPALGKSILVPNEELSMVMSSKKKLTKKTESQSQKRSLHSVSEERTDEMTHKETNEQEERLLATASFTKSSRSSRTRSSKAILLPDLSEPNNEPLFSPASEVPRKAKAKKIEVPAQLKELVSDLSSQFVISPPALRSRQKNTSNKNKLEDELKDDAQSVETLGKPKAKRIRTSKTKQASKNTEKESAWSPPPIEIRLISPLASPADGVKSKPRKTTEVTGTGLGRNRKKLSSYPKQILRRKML
UniProt O60266: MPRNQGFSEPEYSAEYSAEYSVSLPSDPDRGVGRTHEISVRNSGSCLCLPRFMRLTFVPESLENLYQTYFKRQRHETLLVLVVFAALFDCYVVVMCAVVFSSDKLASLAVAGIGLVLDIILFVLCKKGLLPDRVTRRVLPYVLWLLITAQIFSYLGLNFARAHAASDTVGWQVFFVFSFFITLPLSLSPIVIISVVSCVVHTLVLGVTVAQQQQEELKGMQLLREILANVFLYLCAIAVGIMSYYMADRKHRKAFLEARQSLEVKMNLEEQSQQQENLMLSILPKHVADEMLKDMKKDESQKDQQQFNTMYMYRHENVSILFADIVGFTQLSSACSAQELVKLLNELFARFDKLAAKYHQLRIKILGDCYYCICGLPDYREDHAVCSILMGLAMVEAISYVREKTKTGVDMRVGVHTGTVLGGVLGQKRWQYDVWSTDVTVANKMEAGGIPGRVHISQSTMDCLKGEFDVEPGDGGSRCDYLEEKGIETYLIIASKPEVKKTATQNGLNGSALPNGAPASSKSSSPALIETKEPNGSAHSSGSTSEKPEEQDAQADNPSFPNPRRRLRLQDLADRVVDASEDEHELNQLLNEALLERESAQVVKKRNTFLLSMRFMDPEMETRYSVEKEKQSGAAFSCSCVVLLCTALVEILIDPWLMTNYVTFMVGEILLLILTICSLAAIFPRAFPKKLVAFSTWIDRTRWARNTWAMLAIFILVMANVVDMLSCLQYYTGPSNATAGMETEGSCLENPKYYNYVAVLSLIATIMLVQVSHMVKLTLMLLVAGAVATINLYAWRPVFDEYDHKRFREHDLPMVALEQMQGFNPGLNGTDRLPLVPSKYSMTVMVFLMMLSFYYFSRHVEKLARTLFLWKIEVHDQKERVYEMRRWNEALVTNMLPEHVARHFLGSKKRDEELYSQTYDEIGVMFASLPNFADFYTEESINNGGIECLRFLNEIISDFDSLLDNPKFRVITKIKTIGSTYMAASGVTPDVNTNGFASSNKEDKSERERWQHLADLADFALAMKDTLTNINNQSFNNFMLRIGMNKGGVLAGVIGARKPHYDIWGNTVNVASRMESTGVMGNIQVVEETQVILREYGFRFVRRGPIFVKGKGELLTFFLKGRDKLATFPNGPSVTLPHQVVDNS
UniProt P55196: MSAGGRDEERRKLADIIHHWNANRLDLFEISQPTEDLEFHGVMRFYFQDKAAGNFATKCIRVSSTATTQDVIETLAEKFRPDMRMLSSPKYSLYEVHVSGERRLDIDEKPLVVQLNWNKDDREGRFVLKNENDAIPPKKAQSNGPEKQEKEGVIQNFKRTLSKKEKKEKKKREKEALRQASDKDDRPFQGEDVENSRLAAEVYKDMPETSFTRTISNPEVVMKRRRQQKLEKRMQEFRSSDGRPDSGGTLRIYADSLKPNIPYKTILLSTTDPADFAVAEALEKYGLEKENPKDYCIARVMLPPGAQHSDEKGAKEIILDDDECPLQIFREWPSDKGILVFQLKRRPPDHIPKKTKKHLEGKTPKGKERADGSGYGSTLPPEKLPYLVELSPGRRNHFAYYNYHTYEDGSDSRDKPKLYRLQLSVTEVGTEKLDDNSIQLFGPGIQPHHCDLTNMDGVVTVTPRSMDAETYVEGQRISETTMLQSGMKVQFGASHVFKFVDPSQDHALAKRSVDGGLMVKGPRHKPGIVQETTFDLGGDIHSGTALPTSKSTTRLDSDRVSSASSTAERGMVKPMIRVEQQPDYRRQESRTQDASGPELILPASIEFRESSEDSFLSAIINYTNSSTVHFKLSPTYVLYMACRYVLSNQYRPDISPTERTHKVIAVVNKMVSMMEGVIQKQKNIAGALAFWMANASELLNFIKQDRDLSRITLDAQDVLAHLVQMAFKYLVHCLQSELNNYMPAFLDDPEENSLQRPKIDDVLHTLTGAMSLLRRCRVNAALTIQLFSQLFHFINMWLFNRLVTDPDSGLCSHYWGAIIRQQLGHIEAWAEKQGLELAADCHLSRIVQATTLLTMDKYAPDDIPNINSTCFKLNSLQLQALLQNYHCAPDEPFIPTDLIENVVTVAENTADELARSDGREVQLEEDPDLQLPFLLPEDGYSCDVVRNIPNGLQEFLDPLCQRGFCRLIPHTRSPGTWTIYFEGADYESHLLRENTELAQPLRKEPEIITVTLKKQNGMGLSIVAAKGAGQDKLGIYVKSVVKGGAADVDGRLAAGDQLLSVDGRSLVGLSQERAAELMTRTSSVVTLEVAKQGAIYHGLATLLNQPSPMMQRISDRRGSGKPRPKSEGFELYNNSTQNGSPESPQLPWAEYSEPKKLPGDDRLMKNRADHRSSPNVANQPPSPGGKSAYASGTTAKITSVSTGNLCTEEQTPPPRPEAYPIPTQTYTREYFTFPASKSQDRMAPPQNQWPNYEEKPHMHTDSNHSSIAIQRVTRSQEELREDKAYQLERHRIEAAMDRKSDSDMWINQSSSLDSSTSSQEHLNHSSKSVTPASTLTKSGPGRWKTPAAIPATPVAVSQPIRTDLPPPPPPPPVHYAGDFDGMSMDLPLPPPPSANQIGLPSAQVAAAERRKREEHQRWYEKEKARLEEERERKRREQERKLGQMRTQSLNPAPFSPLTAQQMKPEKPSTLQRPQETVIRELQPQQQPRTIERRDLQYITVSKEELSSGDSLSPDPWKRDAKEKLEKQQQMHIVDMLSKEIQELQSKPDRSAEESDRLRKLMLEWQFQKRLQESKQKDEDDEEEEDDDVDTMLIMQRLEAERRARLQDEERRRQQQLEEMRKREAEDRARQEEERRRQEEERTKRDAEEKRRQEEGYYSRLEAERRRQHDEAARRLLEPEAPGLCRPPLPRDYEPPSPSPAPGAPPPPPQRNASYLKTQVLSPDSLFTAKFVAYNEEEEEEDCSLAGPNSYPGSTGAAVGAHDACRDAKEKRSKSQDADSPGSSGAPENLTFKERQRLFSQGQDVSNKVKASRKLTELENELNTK

Assays:
Test in all cases: log2 fold change, soluble protein after heating vs DMSO (PISA); higher = thermal stabilisation; K562 cells, 10 uM, 30 min; active = over 0.2 and 3.5 SD of the protein, either way, in both replicates (recomputed)
[1] = compound: COC1=CC=C(C=C1)CN2C=CC3=C2C=C(C=C3)C(=O)NO
Procedure, shortened: (§1)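 Quantification of soluble protein used TMTpro 16plex LC-MS/MS, with channel sums equalised. Samples were the supernatant after 21,000xg for 90 min of pooled aliquots from K562 cells (2×10^6 cells/mL) treated with 10 μM compound for 30 min, heated for 3 min over 48°C-58°C, and extracted in PBS with 0.5% NP-40 at 4°C. Values, from duplicates, describe thermal stability against control samples on a log2 fold-change scale.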

filanesib = compound: CON(C)C(=O)N1N=C(c2cc(F)ccc2F)S[C@@]1(CCCN)c1ccccc1 [filanesib]
Procedure, shortened: as §1

zotarolimus = compound: CO[C@H]1C[C@@H]2CC[C@@H](C)[C@@](O)(O2)C(=O)C(=O)N2CCCC[C@H]2C(=O)O[C@H]([C@H](C)C[C@@H]2CC[C@H](n3cnnn3)[C@H](OC)C2)CC(=O)[C@H](C)/C=C(\C)[C@@H](O)[C@@H](OC)C(=O)[C@H](C)C[C@H](C)/C=C/C=C/C=C/1C [zotarolimus]
Procedure, shortened: as §1

idasanutlin = compound: COc1cc(C(=O)O)ccc1NC(=O)[C@@H]1N[C@@H](CC(C)(C)C)[C@](C#N)(c2ccc(Cl)cc2F)[C@H]1c1cccc(Cl)c1F [idasanutlin]
Procedure, shortened: as §1

alisertib = compound: COc1cc(Nc2ncc3c(n2)-c2ccc(Cl)cc2C(c2c(F)cccc2OC)=NC3)ccc1C(=O)O [alisertib]
Procedure, shortened: as §1

[2] = compound: COc1cc2nc(-c3cc(F)ccc3O)nc(N[C@@H]3CNC[C@H]3C(C)(C)O)c2cc1OC
Procedure, shortened: as §1

gefitinib = compound: COc1cc2ncnc(Nc3ccc(F)c(Cl)c3)c2cc1OCCCN1CCOCC1 [gefitinib]
Procedure, shortened: as §1

[3] = compound: COc1cccc2cc(-c3nc([C@H]4CC[C@H](C(=O)O)CC4)n4ncnc(N)c34)[nH]c12
Procedure, shortened: as §1

lapatinib = compound: CS(=O)(=O)CCNCc1ccc(-c2ccc3ncnc(Nc4ccc(OCc5cccc(F)c5)c(Cl)c4)c3c2)o1 [lapatinib]
Procedure, shortened: as §1

[4] = compound: CS(=O)(=O)c1ccc(-c2cnc(N)c(C(=O)Nc3ccccc3)n2)cc1
Procedure, shortened: as §1

crizotinib = compound: C[C@@H](Oc1cc(-c2cnn(C3CCNCC3)c2)cnc1N)c1c(Cl)ccc(F)c1Cl [crizotinib]
Procedure, shortened: as §1

[5] = compound: C[C@@H]1COCCN1C2=NC(=NC(=C2)C3(CC3)S(=O)(=O)C)C4=C5C=CNC5=CC=C4
Procedure, shortened: as §1

[6] = compound: C[C@H](C1=CC=C(C=C1)C(=O)NC2=C3C=CNC3=NC=C2)N
Procedure, shortened: as §1

doramapimod = compound: Cc1ccc(-n2nc(C(C)(C)C)cc2NC(=O)Nc2ccc(OCCN3CCOCC3)c3ccccc23)cc1 [doramapimod]
Procedure, shortened: as §1

ispinesib = compound: Cc1ccc(C(=O)N(CCCN)[C@@H](c2nc3cc(Cl)ccc3c(=O)n2Cc2ccccc2)C(C)C)cc1 [ispinesib]
Procedure, shortened: as §1

pictilisib = compound: CS(=O)(=O)N1CCN(Cc2cc3nc(-c4cccc5[nH]ncc45)nc(N4CCOCC4)c3s2)CC1 [pictilisib]
Procedure, shortened: as §1

gandotinib = compound: Cc1cc(Nc2cc(CN3CCOCC3)c3nc(C)c(Cc4ccc(Cl)cc4F)n3n2)n[nH]1 [gandotinib]
Procedure, shortened: as §1

[7] = compound: Cc1cc(SCc2sc(-c3ccc(C(F)(F)F)cc3)nc2C)ccc1OCC(=O)O
Procedure, shortened: as §1

tozasertib = compound: Cc1cc(Nc2cc(N3CCN(C)CC3)nc(Sc3ccc(NC(=O)C4CC4)cc3)n2)n[nH]1 [tozasertib]
Procedure, shortened: as §1

duvelisib = compound: C[C@H](Nc1ncnc2nc[nH]c12)c1cc2cccc(Cl)c2c(=O)n1-c1ccccc1 [duvelisib]
Procedure, shortened: as §1

Measured: log2 fold change

AGAP3 isoform 4 (UniProt Q96P47)
inactive: [1] -0.051 | filanesib 0.24 | zotarolimus -0.02 | idasanutlin 0.12 | alisertib -0.073 | [2] 0.079 | gefitinib 0.28 | [3] -0.1 | lapatinib 0.038 | [4] -0.041 | crizotinib -0.231 | [5] -0.133 | [6] 0.07 | doramapimod 0.125 | ispinesib -0.069

ADH5 (UniProt P11766)
inactive: [1] -0.002 | filanesib -0.053 | zotarolimus 0.008 | idasanutlin -0.037 | alisertib -0.039 | [2] 0.011 | gefitinib -0.007 | [3] 0.058 | lapatinib -0.03 | pictilisib 0 | [4] -0.021 | crizotinib 0.033 | [5] 0.032 | [6] -0.033 | gandotinib -0.014 | [7] -0.031 | doramapimod -0.033 | ispinesib -0.003

ANAPC15 isoform 2 (UniProt P60006)
inactive: [1] 0.063 | zotarolimus 0.015 | idasanutlin 0.036 | [2] -0.035 | lapatinib 0.042 | crizotinib 0.016 | [6] 0.228 | tozasertib -0.023 | doramapimod -0.059

ADGRD1 isoform 4 (UniProt Q6QNK2)
inactive: [1] -0.052 | zotarolimus 0.017 | idasanutlin -0.287 | alisertib -0.044 | [3] 0.138 | crizotinib -0.001 | [6] 0.078 | duvelisib -0.148 | tozasertib -0.091 | [7] 0.05 | doramapimod -0.004

AMBP (UniProt P02760)
inactive: [1] -0.015 | zotarolimus -0.204 | alisertib 0.101 | [2] 0.063 | [3] 0.31 | lapatinib -0.263 | pictilisib -0.07 | crizotinib 0.19 | [6] 0.118 | duvelisib -0.332 | gandotinib -0.134 | [7] -0.205 | doramapimod -0.01

AKAP9 isoform 6 (UniProt Q99996)
inactive: [1] -0.051 | zotarolimus 0.321 | alisertib 0.022 | gefitinib 0.055 | [3] 0.074 | crizotinib -0.088 | [5] -0.317 | [6] 0.478 | doramapimod 0.238 | ispinesib -0.291

AMN1 (UniProt Q8IY45)
inactive: filanesib -0.043 | zotarolimus 0.052 | idasanutlin -0.001 | alisertib -0.121 | [2] -0.057 | gefitinib 0.108 | [3] 0.029 | lapatinib 0.059 | pictilisib 0.133 | [4] 0.231 | [5] 0.298 | [6] -0.234 | duvelisib 0.193 | gandotinib 0.076 | tozasertib -0.06 | [7] -0.08

ADD3 isoform 2 (UniProt Q9UEY8)
inactive: [1] -0.022 | filanesib -0.025 | zotarolimus 0.186 | idasanutlin -0.276 | alisertib -0.042 | [2] 0.094 | [3] -0.003 | lapatinib -0.028 | pictilisib 0.125 | [4] -0.032 | crizotinib 0.028 | [5] 0.101 | [6] -0.248 | gandotinib -0.211 | [7] 0.089 | doramapimod -0.074 | ispinesib 0.036

AFF1 isoform 2 (UniProt P51825)
inactive: [1] 0 | idasanutlin -0.425 | alisertib 0.004 | [2] 0.163 | gefitinib -0.1 | [3] 0.088 | lapatinib 0.056 | pictilisib -0.128 | crizotinib -0.084 | [5] -0.011 | duvelisib 0.031 | gandotinib 0.049 | [7] -0.135 | doramapimod 0.123

AKAP11 (UniProt Q9UKA4)
inactive: [1] -0.097 | filanesib 0.228 | zotarolimus -0.025 | pictilisib -0.015 | [4] 0.06 | crizotinib 0.116 | [6] 0.315 | gandotinib 0.062 | doramapimod -0.1

AEBP2 (UniProt Q6ZN18)
inactive: [1] 0.127 | crizotinib 0.084 | [5] -0.017 | doramapimod -0.083

ADGB (UniProt Q8N7X0)
inactive: [1] -0.342 | alisertib 0.55 | [2] 0.008 | [3] -0.035 | lapatinib -0.063 | pictilisib 0.246 | crizotinib 0.093 | [5] -0.242 | gandotinib 0.497 | doramapimod -0.139

ADGRV1 (UniProt Q8WXG9)
inactive: [1] -0.327 | filanesib 0.13 | zotarolimus -0.038 | alisertib 0.222 | gefitinib 0.014 | [3] 0.08 | pictilisib -0.508 | [4] 0.177 | crizotinib -0.021 | [5] 0.066 | [6] 0.269 | gandotinib -0.591 | doramapimod 0.096

AKNA (UniProt Q7Z591)
inactive: filanesib 0.04 | zotarolimus 0.01 | [2] 0.205 | lapatinib -0.059 | [4] -0.015 | [6] -0.02

AHCTF1 isoform 2 (UniProt Q8WYP5)
inactive: [1] -0.036 | filanesib -0.154 | zotarolimus -0.034 | idasanutlin 0.072 | alisertib -0.107 | gefitinib 0.252 | [3] -0.043 | pictilisib -0.109 | [4] 0.017 | crizotinib 0 | [5] 0.186 | [6] 0.287 | duvelisib 0.025 | gandotinib 0.187 | tozasertib -0.111 | [7] -0.05 | doramapimod -0.051 | ispinesib -0.078

ALKBH8 isoform 4 (UniProt Q96BT7)
inactive: [1] -0.035 | filanesib 0.053 | zotarolimus -0.11 | alisertib 0.049 | [3] 0.046 | pictilisib 0.124 | [4] -0.059 | crizotinib 0.069 | [5] 0.143 | [6] 0.005 | duvelisib -0.067 | gandotinib -0.032 | [7] 0.243 | doramapimod 0.081

ADCY3 (UniProt O60266)
inactive: [1] -0.06 | filanesib 0.079 | zotarolimus 0.018 | idasanutlin -0.028 | [2] 0.111 | lapatinib -0.009 | pictilisib 0.071 | [4] 0.185 | crizotinib -0.102 | [6] 0.029 | duvelisib 0.014 | gandotinib -0.034 | tozasertib 0.02 | [7] -0.156 | doramapimod 0.105 | ispinesib -0.119

AMD1 (UniProt P17707)
inactive: [1] -0.009 | filanesib -0.128 | idasanutlin -0.193 | alisertib -0.023 | [2] 0.024 | gefitinib 0.041 | [3] 0.058 | lapatinib -0.034 | pictilisib 0.043 | [4] -0.058 | crizotinib 0.059 | [5] 0.035 | gandotinib 0.043 | doramapimod -0.07 | ispinesib 0.008

AMDHD2 (UniProt Q9Y303)
inactive: filanesib -0.16 | zotarolimus -0.023 | [2] -0.123 | lapatinib 0.011 | pictilisib -0.158 | [4] 0.11 | [6] -0.145 | duvelisib -0.047 | gandotinib 0.027 | tozasertib -0.084 | [7] 0.088

ADGRE2 (UniProt Q9UHX3)
inactive: [1] -0.012 | filanesib -0.025 | idasanutlin 0.012 | alisertib 0.535 | [2] -0.03 | gefitinib 0.015 | [3] -0.057 | lapatinib -0.03 | pictilisib 0 | [4] -0.034 | crizotinib 0.04 | [5] 0.151 | gandotinib 0.022 | tozasertib -0.02 | doramapimod 0.051 | ispinesib 0.216

ALDH3A2 isoform 2 (UniProt P51648)
inactive: [1] -0.208 | crizotinib 0.042 | duvelisib -0.018 | [7] 0.082 | doramapimod -0.01

ADCK5 (UniProt Q3MIX3)
inactive: [1] -0.036 | filanesib 0.103 | [4] -0.029 | crizotinib 0.113 | [5] -0.409 | tozasertib -0.24 | doramapimod 0.086 | ispinesib -0.134

Two consecutive records already listed, quoted:
AMD1 (UniProt P17707)
inactive: [1] -0.009 | filanesib -0.128 | idasanutlin -0.193 | alisertib -0.023 | [2] 0.024 | gefitinib 0.041 | [3] 0.058 | lapatinib -0.034 | pictilisib 0.043 | [4] -0.058 | crizotinib 0.059 | [5] 0.035 | gandotinib 0.043 | doramapimod -0.07 | ispinesib 0.008

AMDHD2 (UniProt Q9Y303)
inactive: filanesib -0.16 | zotarolimus -0.023 | [2] -0.123 | lapatinib 0.011 | pictilisib -0.158 | [4] 0.11 | [6] -0.145 | duvelisib -0.047 | gandotinib 0.027 | tozasertib -0.084 | [7] 0.088

Continuation:

AFDN isoform 1 (UniProt P55196)
inactive: [1] -0.151 | filanesib 0.024 | zotarolimus -0.01 | idasanutlin 0.019 | alisertib 0.127 | [3] 0.074 | pictilisib -0.144 | [4] 0.004 | crizotinib 0.088 | [5] 0.371 | [6] 0.111 | gandotinib 0.183 | [7] 0.068 | doramapimod 0.116 | ispinesib 0.11
